# PubChem BioAssay AID1671190 (National Center for Advancing Translational Sciences (NCATS), 2021)
# Chains of the proteins cited; added tags and fusions are not shown.
# UniProt P18054, whole entry, looked up: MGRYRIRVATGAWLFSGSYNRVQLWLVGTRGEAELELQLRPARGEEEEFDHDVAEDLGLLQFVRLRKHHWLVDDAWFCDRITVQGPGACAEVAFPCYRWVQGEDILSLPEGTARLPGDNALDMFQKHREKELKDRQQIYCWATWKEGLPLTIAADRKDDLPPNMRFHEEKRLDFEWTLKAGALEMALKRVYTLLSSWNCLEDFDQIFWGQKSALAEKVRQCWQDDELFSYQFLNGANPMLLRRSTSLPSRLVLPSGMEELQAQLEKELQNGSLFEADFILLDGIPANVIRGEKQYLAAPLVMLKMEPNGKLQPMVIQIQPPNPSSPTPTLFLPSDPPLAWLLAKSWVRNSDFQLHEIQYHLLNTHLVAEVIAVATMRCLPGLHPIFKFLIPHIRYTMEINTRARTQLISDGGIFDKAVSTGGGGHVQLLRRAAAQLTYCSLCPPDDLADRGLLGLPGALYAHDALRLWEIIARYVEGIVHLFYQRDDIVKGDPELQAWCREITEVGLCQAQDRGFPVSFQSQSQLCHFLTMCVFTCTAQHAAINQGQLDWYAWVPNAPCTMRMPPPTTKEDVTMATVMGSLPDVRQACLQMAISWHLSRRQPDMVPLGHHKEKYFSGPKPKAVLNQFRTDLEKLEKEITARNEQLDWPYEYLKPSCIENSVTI
# Screen size: about 580,000 compounds; about 6,100 (1.1%) were called active. The shares of active, inactive and inconclusive entries below differ from those in the screen. The call rests on the fitted dose curve; in most records, active means well fitted inhibition curve with a large enough effect; inconclusive means small, poorly fitted or top-dose-only effect, or another doubt; inactive means no such curve, though single readings can be large or run the other way. Potencies beside an inconclusive call are fits to weak or partial responses and may not hold up.
# Target: Polyunsaturated fatty acid lipoxygenase ALOX12 (Homo sapiens) (UniProt P18054)
# Assay: Primary qHTS assay for inhibitors of human arachidonate 12S-lipoxygenase (ALOX12): Round 2
# Details: purified 12hLO, xylenol orange hydroperoxide absorbance; activity change, negative = inhibition: at 108 µM (top of the series)
# In short: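 Purified human 12hLO at 150 nM in 25 mM Hepes, 0.01% Triton X-100, pH 7.0, preincubated 15 min at room temperature with compound. Reaction started with 40 uM arachidonic acid, 30 min at room temperature. Hydroperoxide measured by Fe-xylenol orange, 573/405 nm absorbance ratio.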
# On the % scale 0 is the no-effect control and ±100 the full control effect; potency means the concentration at half of the fitted maximal effect.
Compound,Potency,"activity change, negative = inhibition"
Cc1ccccc1-c1nc(CS(=O)CC(=O)N2CCC3(CC2)OCCO3)c(C)o1 (stereo not given),inactive,–
CC(C)(O)c1cn(C[C@H]2CC3CCN2C[C@@H]3C(=O)Nc2nccs2)nn1 (stereo not given in full),inactive,–
C=C[C@H]1CN2CC[C@H]1C[C@@H]2CNC(=O)C1CCCCC1,inactive,–
CC1=C(C(=O)O)N2C(=O)[C@@H](N)[C@H]2SC1,"inconclusive: 14.1 µM [inhibitor, single point]",–
CC(O)(CS(=O)(=O)c1ccc(F)cc1)C(=O)Nc1ccc(C#N)c(C(F)(F)F)c1 (stereo not given),"inconclusive: 1.09 µM [inhibitor, full curve, poor fit]",–
CCOc1ccc(CN2CCN(C(=O)Cc3ccccc3)CC2)cc1,"inconclusive: 0.501 µM [inhibitor, full curve, poor fit]",–
COc1ccc(CN2CCN(C(=O)COc3ccc4ccccc4c3)CC2)cc1OC,"inconclusive: 0.447 µM [inhibitor, full curve]",–
COc1ccc(CCNCc2cc(OC)cc(OC)c2)cc1,"inconclusive: 28.2 µM [inhibitor, full curve, poor fit]",–
CNc1ccc(OC2CCNCC2)nc1,"inconclusive: 3.98 µM [inhibitor, full curve]",–
CC(=O)C1CCC2(O)C3CCC4=CC(=O)CCC4(C)C3CCC12C (stereo not given),inactive,–
CCOc1ccccc1N=C1SCCCN1C,active: 7.08 µM,–
CCN1CCN(C(=O)Cc2ccc(Nc3ncc(F)c(Nc4ccc(C(=O)Nc5ccccc5Cl)cc4)n3)cc2)CC1,active: 3.85 µM,–
CC(NC(C)c1ccc(Cl)cc1)C(=O)c1c[nH]c2ccccc12 (stereo not given),"inconclusive: 1.58 µM [inhibitor, full curve, poor fit]",–
Cc1cc(N2CCNC[C@@H]2C)ccc1N1CC[C@@H](O)C1,"inconclusive: 22.4 µM [inhibitor, partial curve, poor fit]",–
C=C[C@H]1CN2CC[C@H]1C[C@@H]2CNCc1cccc(Cl)c1,inactive,–
CCCC(=O)NC1=C(N2CC2)C(=O)C(NC(=O)CCC)=C(N2CC2)C1=O,"inconclusive: 79.4 µM [inhibitor, partial curve, poor fit]",–
COc1ccc(C2C=C(C)Oc3c2c(=O)oc2ccccc32)cc1OC (stereo not given),"inconclusive: 158 µM [inhibitor, partial curve, poor fit]",–
O=C(Nc1ccccc1)Nc1ccc2n(c1=O)C[C@H]1C[C@@H]2CN(C(=O)c2cccs2)C1,"inconclusive: 35.5 µM [inhibitor, partial curve, poor fit]",–
Cn1cccc1CN1CCC2(CC1)C(=O)Nc1ccccc12,"inconclusive: 70.8 µM [inhibitor, partial curve, poor fit]",–
N#Cc1cc2c(nc1SCC(=O)Nc1ccc(Cl)c(C(F)(F)F)c1)C1CCN2CC1,inactive,–
CNC(=O)Oc1cccc2ccccc12,"inconclusive: 8.09 µM [inhibitor, partial curve, poor fit]",–
CCOC(=O)c1cncn1[C@H](C)c1ccccc1,"inconclusive: 0.769 µM [inhibitor, full curve, poor fit]",–

Compound,Potency,"activity change, negative = inhibition"
CC1CCCCC12C(=O)NC(=O)NC2=O (stereo not given),"inconclusive: 39.8 µM [inhibitor, partial curve, poor fit]",–
CC(Cc1cccc(Cl)c1)NC(=O)CCCNC(=O)C1CC1 (stereo not given),inactive,–
COc1cccc([C@@H]2CCN(Cc3cc4ccccc4n(C)c3=O)C[C@H]2O)c1,inactive,–
O=C(Nc1ccccc1)c1cn(Cc2ccccc2)nn1,"inconclusive: 89.1 µM [inhibitor, single point]",–
N[C@@H](CCP(=O)(O)O)C(=O)O,"inconclusive: 7.08 µM [inhibitor, partial curve, poor fit]",–
O=[N+]([O-])c1cccnc1N1CC2CCC(C1)N2CC(F)(F)F,–,inactive: 6.28% [at 6.33 µM]
COc1ccc(NC(=O)c2cccn(Cc3ccc(Cl)cc3)c2=O)c(OC)c1,"inconclusive: 79.4 µM [inhibitor, partial curve, poor fit]",–
CC1CC2(O)c3nonc3CCC2N1O (stereo not given),"inconclusive: 100 µM [inhibitor, single point]",–
Cc1cc(C)c(C(=O)CN2CCOCC2)c(C)c1,"inconclusive: 31.6 µM [inhibitor, partial curve, poor fit]",–
CC1c2cccn2-c2ccccc2CN1C(=O)Nc1ccc(Br)cc1 (stereo not given),"inconclusive: 112 µM [inhibitor, partial curve, poor fit]",–
Cc1cc(C(=O)OC(C)C(=O)Nc2ccccc2)c(C)n1C1CC1 (stereo not given),"inconclusive: 100 µM [inhibitor, single point]",–
COc1ccc(NC(=O)N2[C@H]3CC[C@@H]2c2cnc(-c4ccc(F)cc4)nc2C3)c(OC)c1,inactive,–
Cc1ncsc1CCCl,"inconclusive: 10 µM [inhibitor, full curve, poor fit]",–
O=C1C2CCCN2C(c2ccc(Cl)c(Cl)c2)N1c1ccccn1 (stereo not given),"inconclusive: 12.6 µM [inhibitor, full curve, poor fit]",–
Cc1ccc(/C=C2/C(=O)NC(=O)N(CCc3ccc(F)cc3)C2=O)s1,"inconclusive: 79.4 µM [inhibitor, partial curve, poor fit]",–
O=P(NS(=O)(=O)c1ccc(Cl)cc1)(Oc1ccccc1)Oc1ccccc1,"inconclusive: 20 µM [inhibitor, full curve]",–
C=CC1CN2CCC1CC2[C@@H](OC(=O)c1ccc(OC)cc1)c1ccnc2ccccc12 (stereo not given in full),"inconclusive: 141 µM [inhibitor, partial curve, poor fit]",–
COc1cc2c(cc1Oc1ccccc1)NC(=O)C21CCN(c2ncc(F)cn2)CC1,inactive,–
O=C(c1ccoc1)N1CCC2(CC1)NCc1ccccc1-n1ccnc12,inactive,–
CCCCCCC(C)(C)c1ccc([C@@H]2C[C@H](O)CC[C@H]2CCCO)c(O)c1,"inconclusive: 50.1 µM [inhibitor, partial curve, poor fit]",–
Cc1nc2cc(C(F)(F)F)ccc2n1C1CCN(Cc2nnnn2Cc2ccc3c(c2)OCO3)CC1,"inconclusive: 89.1 µM [inhibitor, partial curve, poor fit]",–
CCN(CC)C(=O)c1ccc(NC(=O)COc2ccc3c(C)cc(=O)oc3c2)cc1,inactive,–

Compound,Potency,"activity change, negative = inhibition"
CCN(CC)C(=O)c1ccc(N2C(=O)CCS2(=O)=O)cc1Cl,inactive,–
O=C(CSC1c2ccccc2Oc2ccccc21)Nc1ccc(C(=O)O)cc1,inactive,–
COC1(CS(=O)c2ccccc2)CCN(CCc2c[nH]c3ccc(F)cc23)CC1 (stereo not given),inactive,–
CCCCN(Cc1ccccc1)C1CCN(CCc2ccccc2)CC1,"inconclusive: 25.1 µM [inhibitor, partial curve]",–
C=CCN1CC[C@@]23c4c5ccc(O)c4O[C@H]2/C(=N\N=C2/CC[C@@]4(O)[C@H]6Cc7ccc(O)c8c7[C@@]4(CCN6CC=C)[C@@H]2O8)CC[C@]3(O)[C@@H]1C5,"inconclusive: 35.5 µM [inhibitor, partial curve, poor fit]",–
CCc1ccc(CN2CCN(Cc3cc(Br)ccc3O)CC2)cc1,active: 0.631 µM,–
C=C[C@H]1CN2CC[C@H]1C[C@@H]2CNC(=O)c1ccc(C(F)(F)F)cc1,"inconclusive: 7.94 µM [inhibitor, full curve, poor fit]",–
CN1CCN(Cc2ccccc2C(F)(F)F)CC1,"inconclusive: 14.1 µM [inhibitor, partial curve, poor fit]",–
COC[C@H]1OC(=O)c2coc3c2[C@@]1(C)C1=C(C3=O)C2CCC(=O)[C@@]2(C)C[C@H]1OC(C)=O (stereo not given in full),"inconclusive: 44.7 µM [inhibitor, partial curve, poor fit] [middle of 4 runs]",–
COc1ccc(S(=O)(=O)NC[C@H]2C[C@@H]3CCN2C[C@@H]3CN(C)Cc2ccccc2)cc1,"inconclusive: 6.31 µM [inhibitor, partial curve, poor fit]",–
Nc1ccc(Cl)cc1N,"inconclusive: 18.5 µM [inhibitor, partial curve]",–
C[N+]12CCC(CC1)C(C#N)(N1CCOCC1)C2 (stereo not given),"inconclusive: 44.7 µM [inhibitor, partial curve, poor fit]",–
O=C(c1ccccc1)N1C[C@@H](c2ccc3c(c2)OCO3)[C@@H]2[C@H]1C1CCN2CC1,inactive,–
O=C(Nc1ccccc1Cl)OC1CN2CCC1CC2 (stereo not given),"inconclusive: 112 µM [inhibitor, partial curve, poor fit]",–
CC(=O)OC1CCC2(C)C(CC(=O)C3C2CCC2(C)C(OC(C)=O)CCC32)C1 (stereo not given),"inconclusive: 126 µM [inhibitor, single point]",–
CC1=Nc2ccccc2/C1=C/c1c(O)[nH]c(=O)[nH]c1=O,active: 28.2 µM,–
CN(C(=O)Cc1ccc(Cl)c(Cl)c1)[C@H](CN1CCCC1)c1cccc(N=C=S)c1,"inconclusive: 25.1 µM [inhibitor, partial curve, poor fit]",–
COc1cc2c(cc1OCc1ccccc1)N([S+](=O)([O-])c1cccnc1)CC21CCN(C)CC1,"inconclusive: 35.5 µM [inhibitor, partial curve]",–
COc1ccc(C(c2nnnn2-c2ccc(OC)cc2)N2CCC(n3c(=O)[nH]c4ccccc43)CC2)cc1 (stereo not given),"inconclusive: 31.6 µM [inhibitor, partial curve, poor fit]",–
CN(C)C(=O)[C@H]1CN2CCC1C[C@@H]2Cn1cc(C2(O)CCCCC2)nn1 (stereo not given in full),inactive,–
COc1ccc(-n2c(/C=C3\C(=O)Nc4ccccc43)nc3ccccc3c2=O)cc1,"inconclusive: 50.1 µM [inhibitor, partial curve, poor fit]",–

# In another format: two of the compounds above.
Compound	Potency	activity change, negative = inhibition
COc1ccc(S(=O)(=O)NC[C@H]2C[C@@H]3CCN2C[C@@H]3CN(C)Cc2ccccc2)cc1	inconclusive: 6.31 µM [inhibitor, partial curve, poor fit]	–
Nc1ccc(Cl)cc1N	inconclusive: 18.5 µM [inhibitor, partial curve]	–
